According to patent US20080234345A1, “METHOD FOR REDUCING OR ALLEVIATING INFLAMMATION IN THE DIGESTIVE TRACT” (Gene Logic Inc., priority 2006, published 2008):
At least one structure is not confirmed: it was looked up by name or label, or the drawing left a doubt.

Tested on: DSS-induced colitis in Balb/c mice
Test: DSS-induced histological effects in colon of Balb/c mice (Example 6)
Assay type: in vivo
Description: A study was designed with five groups of Balb/c mice: naïve control, DSS followed by vehicle, DSS followed by dexamethasone 3 mg/kg/day, DSS followed by GL1001 10 mg/kg/day, and DSS followed by GL1001 100 mg/kg/day. Administration of DSS was via drinking water (DSS 5% in water), from day 0 to day 7 of the study. […] Administration of vehicle, dexamethasone and GL1001 was subcutaneous, once daily, from day 7 until termination of the study (day 14).
At termination of the study, samples from proximal, transverse and distal portions of the colon of each animal were collected for histological analysis, which included: • (a) inflammation score (0-5), based on leukocyte infiltration in mucosa and submucosa, crypt abcess and edema; • (b) glandular score (0-5), based on crypt destruction (crypts function to produce mucin and generate epithelium); and • (c) erosion score (0-5), based on integrity of epithelium or degree of ulceration thereof. A total histopathological score was obtained by adding the scores from (a), (b) and (c) above.

## C[C@@H]1C[C@H]2[C@@H]3CCC4=CC(=O)C=C[C@]4(C)[C@@]3(F)[C@@H](O)C[C@]2(C)[C@@]1(O)C(=O)CO [dexamethasone, reference compound]
Dexamethasone 3 mg/kg/day s.c.
  histological effect: No significant histological effect
s.c. once daily day 7-14, dexamethasone 3 mg/kg/day, GL1001 10 and 100 mg/kg/day
  disease activity (based on fecal samples): No significant improvement
